Percent effect of library compounds

The values are deposited in ChEMBL (CHEMBL3988442, “University of Dundee, Small-Polar-MMV Screening Library” (2021)).

Results are given as percent effect.
How 0% and 100% were set is not recorded. Most values in the screen are low, and negative values occur.
The compounds are a random part of those screened.

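Assay of Toxoplasma gondii numbers, read through their beta-galactosidase reporter with a colour substrate. Concentration: 10 µM. The record gives no direction; the compounds picked for IC50 retests had high values, so higher reads as fewer parasites. Of about 67,000 compounds tested this way, about 260 (0.38%) reached 50% or more in at least one test.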

| # | structure | percent effect |
|---|---|---|
| 1 | `Cc1nc(-c2ccc(S(=O)(=O)N3CCC4(CC3)OCCO4)cc2)co1` | -4.987% |
| 2 | `COCC(=O)N1CCC2(C1)c1ccccc1S(=O)(=O)N2CC1CC1` (stereo not drawn) | -2.108% |
| 3 | `O=C(Nc1ccc(N2CCCC2)nc1)N1CCc2ccccc2C1` | 6.043% |
| 4 | `CN(Cc1nc(N)nc(N(C)C)n1)Cc1cccc2ccccc12` | 5.278% |
| 5 | `Clc1ccccc1CNC(Cn1cncn1)c1ccccc1` (stereo not drawn) | 0.1155% |
| 6 | `CN(CC(=O)NCC(CCO)c1ccccc1)C(=O)OC(C)(C)C` (stereo not drawn) | 11.34% |
| 7 | `Cc1nc(C)c(CC(=O)Nc2ncc(C)s2)c(=O)[nH]1` | -0.4234% |
| 8 | `CN1CCCC(CNC(=O)CN(C)S(=O)(=O)c2cccnc2)C1` (stereo not drawn) | 1.147% |
| 9 | `O=C(O)C(F)(F)F.[H][C@@]12COC[C@]1(COCc1cccnc1)CN(C(=O)Cc1ccsc1)C2` | 11.06% |
| 10 | `Cn1nc(C(=O)N2CCSCC2)cc1NC(=O)c1ccco1` | -0.3013% |
| 11 | `COCCNC(=O)c1nnn(Cc2ccccc2)c1OC` | 38.59% |
| 12 | `Cl.[H][C@@]12NCCCCC[C@@]1([H])N(S(=O)(=O)N1CCCC1)C[C@H]2c1cccc(F)c1` | -11.75% |
| 13 | `O=C(c1ccc(O)c(Cl)c1)N(Cc1ccncc1)C1CC1` | -12.18% |
| 14 | `Fc1cnc(N2CCCC3(CCN(Cc4nccs4)C3)C2)nc1` (stereo not drawn) | -9.235% |
| 15 | `CCc1c(C)nn2c(O)cc(C3CCN(C(=O)c4ccn(C)n4)C3)nc12` (stereo not drawn) | 17.39% |
| 16 | `NC(=O)CN1CCC(NC2CSCCc3ccccc32)CC1` (stereo not drawn) | -0.7572% |
| 17 | `Cc1cc(N2CCOCC2)ccc1NC(C)c1nc(C(C)(C)C)no1` (stereo not drawn) | 19.62% |
| 18 | `Cc1nn(C)c(C)c1CCC(=O)Nc1cccn(C)c1=O` | -18.24% |
| 19 | `COCCn1cc2c(n1)C(CNCc1ccco1)OCC2.O=C(O)C(F)(F)F.O=C(O)C(F)(F)F` (stereo not drawn) | 0.2878% |
| 20 | `COc1ccc(CNCc2ccnc(N3CCOCC3)c2)c(OC)c1` | 2.814% |
| 21 | `Cc1cnn(C2CCCN(C(=O)c3cc(-c4ccco4)[nH]n3)C2)c1` (stereo not drawn) | -20.98% |
| 22 | `CN(C)Cc1csc(-c2nccn2Cc2ccc(C(=O)O)cc2)c1` | -7.878% |
| 23 | `O=C1CCCc2nccc(-c3ccccc3)c21` | -9.469% |
| 24 | `NC(=O)C1CCN(C(=O)NC2CCN(CC3CCCC3)C2)CC1` (stereo not drawn) | -0.2651% |
| 25 | `O=C1CSCN1CC(=O)N1CCCC1c1nc2ccccc2s1` (stereo not drawn) | -1.202% |
| 26 | `Cc1ccccc1-c1cncc(C2CCN(Cc3cnn(C)c3)CC2)n1` | -9.85% |
| 27 | `CN1CCN(CC(NCc2ccc(F)c(F)c2)c2ccccc2)CC1` (stereo not drawn) | 23.88% |
| 28 | `Cc1cc(C(=O)N2CCCC2)ccc1NCCOCC(F)(F)F` | -5.042% |
| 29 | `Cc1c(C(=O)O)sc2nc(C(F)(F)F)ccc12` | 0.7572% |
| 30 | `CCOc1ncccc1C(=O)N1CCCC1Cn1cc(C)cn1` (stereo not drawn) | 10.91% |
| 31 | `O=C(Nc1ccccc1F)N(CCO)Cc1ccsc1` | -10.59% |
| 32 | `Cc1cccc(S(=O)(=O)NCC(C)(C)CC(C)O)c1C#N` (stereo not drawn) | -10.28% |
| 33 | `COc1ccccc1-c1cc(C(F)(F)F)c2c(C)nn(CC(=O)O)c2n1` | 17.92% |
| 34 | `O=C(c1csnn1)N1CCc2ccccc21` | -16.98% |
| 35 | `O=C(CN1CCOCC1)Nc1ncc(Br)cc1Br` | 30.48% |
| 36 | `O=C(O)C(F)(F)F.[H][C@@]12CCN(c3cccnc3)C[C@]1([H])CN(C(=O)c1ccccc1C)C2` | 18.31% |
| 37 | `C=C(C)CN(c1cn[nH]c1)S(=O)(=O)c1cccc(C#N)c1` | -1.447% |
| 38 | `O=C(NC1CC1)c1ccc(SCc2cscn2)cc1` | -7.131% |
| 39 | `CN1CCOC(C(=O)Nc2ccc3c(c2)nc(C(C)(C)C)n3C)C1` (stereo not drawn) | -2.322% |
| 40 | `CCn1ncc(NC(=O)CCn2ncc3c(Cl)cccc32)c1C` | -45.72% |
| 41 | `CNC(=O)CCc1cc(C)nc(C2CCN(C(=O)CN(C)C)CC2)c1` | -4.198% |
| 42 | `Cc1nc(-c2ccncc2)ncc1C(C)NC(=O)CN1CCCC1=O` (stereo not drawn) | -15.3% |
| 43 | `Cc1noc(C(C)C)c1C(=O)NCc1cccc(CN(C)C)c1` | 1.48% |
| 44 | `COc1ccccc1C(=O)N(C)C1CCN(c2ccccn2)CC1` | -7.367% |
| 45 | `CC(C)NS(=O)(=O)c1cc(C(=O)O)cc(-c2ccc(CN(C)C)cc2)c1` | 0.2658% |
| 46 | `Cc1ccc(C(=O)NCc2ccnc(N3CCN(C)CC3)c2)cn1` | -1.181% |
| 47 | `[H][C@@]12CN(Cc3nccs3)C[C@]1([H])CN(C(=O)c1cnc(C)cn1)C2` | 5.182% |
| 48 | `Cc1cnn(CC2CCCN2C(=O)CCc2c(C)nc(C)[nH]c2=O)c1` (stereo not drawn) | -5.117% |
| 49 | `CCc1ocnc1C(=O)N1CCC2(CCCN(CC(C)(C)C)C2=O)C1` (stereo not drawn) | -3.735% |
| 50 | `CNC(=O)c1cccc(CCNC2CCSc3ccccc32)c1` (stereo not drawn) | 5.997% |

Once more, the final 6:

* CC(C)NS(=O)(=O)c1cc(C(=O)O)cc(-c2ccc(CN(C)C)cc2)c1 | 0.2658%
* Cc1ccc(C(=O)NCc2ccnc(N3CCN(C)CC3)c2)cn1 | -1.181%
* [H][C@@]12CN(Cc3nccs3)C[C@]1([H])CN(C(=O)c1cnc(C)cn1)C2 | 5.182%
* Cc1cnn(CC2CCCN2C(=O)CCc2c(C)nc(C)[nH]c2=O)c1 (stereo not drawn) | -5.117%
* CCc1ocnc1C(=O)N1CCC2(CCCN(CC(C)(C)C)C2=O)C1 (stereo not drawn) | -3.735%
* CNC(=O)c1cccc(CCNC2CCSc3ccccc32)c1 (stereo not drawn) | 5.997%